The full ranking holds about 33,000 sequences; the median of “E-score (-0.5 to 0.5)” is about -0.016, and the highest 2% start at about 0.3. This is one part of the list.
molecular target: T1, Yer184c (UniProt P39961); assay: PBM E-score (8-mer binding enrichment) (E-score (-0.5 to 0.5)); higher = stronger / more preferred TF binding; details: protein concentration: 100 nM; construct: GST-full length
T1 sequence: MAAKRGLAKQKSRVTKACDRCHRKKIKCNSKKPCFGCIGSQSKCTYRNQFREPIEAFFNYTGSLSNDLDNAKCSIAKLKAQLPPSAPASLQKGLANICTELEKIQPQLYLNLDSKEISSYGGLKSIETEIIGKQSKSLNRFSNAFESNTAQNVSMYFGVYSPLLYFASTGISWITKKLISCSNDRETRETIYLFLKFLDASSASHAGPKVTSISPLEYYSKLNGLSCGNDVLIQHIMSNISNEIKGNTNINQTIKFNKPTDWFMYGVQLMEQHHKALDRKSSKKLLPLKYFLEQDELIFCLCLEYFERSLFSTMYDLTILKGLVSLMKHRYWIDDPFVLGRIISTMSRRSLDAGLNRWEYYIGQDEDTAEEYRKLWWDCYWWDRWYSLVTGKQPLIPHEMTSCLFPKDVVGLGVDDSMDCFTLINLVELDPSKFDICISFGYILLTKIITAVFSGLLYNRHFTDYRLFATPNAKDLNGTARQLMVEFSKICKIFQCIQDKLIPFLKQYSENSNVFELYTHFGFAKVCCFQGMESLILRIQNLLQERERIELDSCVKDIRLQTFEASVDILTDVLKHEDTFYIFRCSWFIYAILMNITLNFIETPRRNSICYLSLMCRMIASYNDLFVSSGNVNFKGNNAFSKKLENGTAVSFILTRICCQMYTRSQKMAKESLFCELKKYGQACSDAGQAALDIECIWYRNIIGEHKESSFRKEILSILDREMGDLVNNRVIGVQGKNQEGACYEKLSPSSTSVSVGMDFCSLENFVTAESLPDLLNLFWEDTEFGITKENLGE
Experimental: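 Universal 'all 10-mer' protein binding microarrays (Agilent AMADID 015681) probed with GST-tagged S. cerevisiae TFs (full-length or DBD) made by in vitro transcription/translation (PURExpress), about 100-200 nM. Bound TF was detected with fluorescent anti-GST. Each ungapped 8-mer (which stands for itself and its reverse complement) is scored by the PBM enrichment score (E-score), a modified Wilcoxon-Mann-Whitney statistic from -0.5 to +0.5, computed with the Universal PBM Analysis Suite. Scale: above 0.35 generally sequence-specific binding.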

Sequence	PBM E-score
GCTGCTGA	0.0415
AGGTGCGA	-0.127
AGAAAGAA	0.175
AACTGCGA	-0.134
AACCCCAG	-0.279
CTGGAAGA	0.0137
ATTTTTCC	0.193
AACCCCCG	-0.255
AAAGAACC	0.165
GCAGCGTA	-0.112
AAAGGCCT	-0.253
AACTTTCA	0.122
CTGACCGA	-0.0183
GCTCTCCA	-0.245
CTAGTTCA	-0.0438
AGGGATAG	-0.208
AGATCGGC	0.194
TACTGATA	0.266
AGTCACAC	-0.207
CTTTTTGC	0.0194
AGATGTAG	-0.0564
ATTTAGAC	0.121
GCGCGTAA	-0.0129
ATGGAGAA	0.14
AGAACGGA	0.228

Sequence	PBM E-score
AGTCCGAC	-0.14
GGAAATAC	0.176
AGCGTTAC	-0.109
CCTCGACA	-0.149
CTGTCAGA	-0.0932
CTACAGTA	-0.133
CTGCAATC	0.0432
ATCCGTAG	0.0954
TAAGATGA	-0.111
GACAATAC	0.146
AGTCGTTC	-0.00059
AGATGGAT	-0.238
ACTCAAAA	0.0736
CACCTCGA	0.188
ATTCTTAC	0.205
CCCAGGTC	-0.431
CCTGCGCC	-0.183
ATTAGAGG	-0.0936
TCACTGAA	0.0275
AAAACTCG	0.208
CATCTCTC	0.00431
CCCCAGAC	-0.31
ACGCAACG	0.17
ATATAGAC	0.191
CACCGTAA	0.0695

Sequence	PBM E-score
ACTCGAAT	-0.0582
CGTAGCGA	0.0394
ATTCTCCG	0.213
AAACACGA	0.0634
AGATTATA	0.0366
CACACGAG	-0.237
ATTTTGTA	0.134
TCAGCGAA	-0.0684
CAGCTTCA	0.0904
ATTGCGGA	0.175
CCGCAAGG	-0.085
CTAACGCA	-0.0604
GAGTCCAC	-0.203
GATGGCAC	-0.201
AGTCTGAC	-0.173
AAAACTGA	-0.0375
GGTGGGTA	-0.224
CGCGACCA	-0.0919
CACGATTA	0.00527
ATCCTTCG	0.118
CGAGAAAA	0.072
CTAATCGC	0.0588
GTGAGGTA	-0.148
CAGCCACC	-0.0795
AGTAATAT	0.338

Sequence	PBM E-score
CTCAGACC	-0.09
CACAAAAG	0.151
CAGGGCTC	-0.226
TATGAACA	0.204
GCGAGGCA	0.0332
AAGACGCT	-0.144
ATTTAATA	0.313
AAATGGAA	0.00888
GCGCTACC	-0.133
AAGAAGCA	0.139
TTATCAAA	0.265
CAGCCCTC	-0.0383
AGGCGGTG	-0.185
ACTAGCCG	0.135
CCTCTGCA	-0.184
CTATGGCA	-0.229
TCATGCCA	0.0211
CGCTGAGC	-0.106
CCTACGAC	-0.141
TCGTAAAA	0.138
ACACGGCC	0.116
CCAACCAA	-0.235
CCGCGGGA	0.324
ACCGTAAG	0.154
AAGTCTCG	0.041

Sequence	PBM E-score
CAAAAGTA	0.141
ACTAACTA	-0.0967
ATGGGCTA	-0.0105
CCGGAGGA	0.265
AGTTGGGC	-0.0254
GGTTTTTA	-0.0146
GACCGAAA	0.265
CTCTCCAA	0.061
ATGGCACA	-0.0226
CCGTTGAG	0.196
TCTTTTAA	0.176
GCTTATGA	0.00297
GTTGTACA	0.277
GGCCATGA	-0.0764
GCCGTTGA	0.107
CCCGTTAA	-0.0453
ACAATAAA	0.17
ACGACGCT	-0.0656
GCTCGAGA	-0.0216
ATAGCTAC	0.0242
AACATTGG	-0.242
AGACATCA	-0.0192
ACTGTCAC	0.00877
CAGGGTTA	-0.298
AGGTGTTA	-0.0862

Sequence	PBM E-score
CGACGTCC	0.139
TCTCTGCA	-0.052
CCACATCG	0.0234
CGGGGATA	0.0634
AAGTTGTA	0.2
AAACAACA	0.149
CGATTATC	0.0805
ACGCCACC	-0.244
ATAATTTG	0.166
TCTGAAGA	-0.0768
AGATCTCA	0.0334
GCTCGATA	0.134
CGGGGTCC	-0.0914
GAGAACGA	0.0869
AAGGGTCG	-0.00512
GTAGTGAC	0.00813
CGCATCCA	-0.136
AGGCATTA	-0.187
CATCGACG	-0.059
GGCTGTAA	-0.0316
AAATGGCA	0.0142
GTAGTATA	0.0407
AAGGCTTA	-0.15
CATGCTCG	-0.0635
CAAAGGGC	-0.223

Sequence	PBM E-score
ATGGGACG	-0.243
ATTACCTG	-0.0119
CCGCAGCA	0.0615
CTTTTAAA	0.173
AAGGCCGT	0.156
AGGCGCCG	0.207
AGTGTTAC	0.17
ACCGCATG	0.0226
ACGCTTGA	0.0312
AACGTAAT	-0.0198
AGGCTCGC	-0.185
CGAAGGAA	0.18
ATCGGAGC	0.0876
ATAAGGGA	-0.149
GAGGGACA	-0.263
ATGTTAAT	0.0916
ATTCTAAA	0.229
CCAGCCGC	0.152
AGATTAAA	0.282
CCATTGAC	-0.166
TCCGTTCA	0.175
AGAGTACG	0.0239
GAGGACCA	-0.198
CATAGGAA	-0.0805
GGCTATGA	-0.0611

Sequence	PBM E-score
TATTTGGA	-0.0743
CCCAGACA	-0.117
CCACGAGA	-0.0203
AGTCCTCC	-0.195
GCACTGAC	-0.0589
GCCCTGGA	-0.255
CCCGATGC	0.0129
ACACAAAC	0.086
ACACCAGT	-0.263
AGAACCCA	-0.157
CTAGAGTA	-0.0589
ATCAATAG	0.0419
CTCCCTCA	-0.119
AACCCTTC	-0.15
AATTCGTC	0.194
AAATGGGG	-0.289
ATAGGACA	-0.269
CCACGTTA	-0.0344
ACTATCCA	0.0283
CGCGCAAC	-0.0356
ATGGACCA	0.00123
AATCTAAT	0.0331
CGGCGGAA	0.298
GTGTGTTA	0.152
ATCCGTGC	0.288

Sequence	PBM E-score
CATAAAGA	0.264
CTACGAAA	0.0184
AGCACCAC	-0.112
GCCGTGCC	0.222
TCAGTACA	0.13
AATACCGT	0.188
CTCTGACA	0.109
ATGTTCCC	-0.107
AACTGCAA	0.0848
CACCGTGC	-0.0814
CCGCGGAA	0.416
CCCGGACC	0.149
CTTGAAGC	0.0169
GAACTCAC	-0.0105
ATAGGCGC	-0.0933
CCCCGTCA	-0.0936
ATTCCAGC	-0.0455
ACGTATAA	-0.0101
ACCCCTAG	-0.252

— the supplement of paper PMC3334620
